From PMC3531502 (PLoS Biology, 2012)
These are yes or no findings as the source states them, for the method shown.

Target: T1, HET-S(1-227), HeLo domain of HET-S (Podospora anserina), B2ACC7
T1 chain: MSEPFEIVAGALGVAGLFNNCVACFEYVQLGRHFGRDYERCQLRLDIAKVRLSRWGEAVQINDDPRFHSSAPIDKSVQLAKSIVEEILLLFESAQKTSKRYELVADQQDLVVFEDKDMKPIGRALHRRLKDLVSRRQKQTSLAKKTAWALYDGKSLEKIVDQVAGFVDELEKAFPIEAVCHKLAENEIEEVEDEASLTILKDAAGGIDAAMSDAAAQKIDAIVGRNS
Assay: SEC-MALS; […], PBS, 10% glycerol, room temperature, […]; both purified
Conditions: remark: other sources report otherwise

- binding: no binding (tested: 20 µM)
B1: HET-S(1-227), HeLo domain of HET-S, B2ACC7 1-227 (domain or fragment)
chain: MSEPFEIVAGALGVAGLFNNCVACFEYVQLGRHFGRDYERCQLRLDIAKVRLSRWGEAVQINDDPRFHSSAPIDKSVQLAKSIVEEILLLFESAQKTSKRYELVADQQDLVVFEDKDMKPIGRALHRRLKDLVSRRQKQTSLAKKTAWALYDGKSLEKIVDQVAGFVDELEKAFPIEAVCHKLAENEIEEVEDEASLTILKDAAGGIDAAMSDAAAQKIDAIVGRNS
